According to patent publication US20210228629A1 (CRISPR THERAPEUTICS, published 2021):

Target: T1, biotinylated-BCMA (Acro Biosystems BC7-H82F0) (UniProt Q02223 1-54, biotinylated)
T1 construct: Soluble staining reagent, detected with PE-conjugated streptavidin
T1 sequence (looked up): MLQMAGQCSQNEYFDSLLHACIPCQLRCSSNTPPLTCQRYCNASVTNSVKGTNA
Experiment: flow cytometry of edited T cells stained with biotinylated BCMA/streptavidin-PE, day 5

B1: anti-TNP CAR with a 4-1BB co-stimulatory domain (other)
chain: DIVMTQSQKFMSTSVGDRVSITCKASQNVGTAVAWYQQKPGQSPKLLIYSASNRYTGVPDRFTGSGSGTDFTLTISNMQSEDLADYFCQQYSSYPLTFGAGTKLELKGSTSGSGKPGSGEGSTKGQVQLQQSGPELVKPGASVRISCKASGYTFTSYYIHWVKQRPGQGLEWIGWIYPGNVNTKYNEKFKGKATLTADKSSSTAYMQLSSLTSEDSAVYFCARNYGSSYGLAYWGQGTLVTVSAAAAFVPVFLPAKPTTTPAPRPPTPAPTIASQPLSLRPEACRPAAGGAVHTRGLDFACDIYIWAPLAGTCGVLLLSLVITLYCNHRNRFSVVKRGRKKLLYIFKQPFMRPVQTTQEEDGCSCRFPEEEEGGCELRVKFSRSADAPAYQQGQNQLYNELNLGRREEYDVLDKRRGRDPEMGGKPRRKNPQEGLYNELQKDKMAEAYSEIGMKGERRRGKGHDGLYQGLSTATKDTYDALHMQALPPR
notes: Control CAR on edited T cells; also called α-TNP/41BB/CD3ζ CAR; α-TNP/41BB/CD3ζ CAR TRAC 1
  binding result: no binding

B2: anti-TNP CAR with a CD28 co-stimulatory domain (other)
chain: DIVMTQSQKFMSTSVGDRVSITCKASQNVGTAVAWYQQKPGQSPKLLIYSASNRYTGVPDRFTGSGSGTDFTLTISNMQSEDLADYFCQQYSSYPLTFGAGTKLELKGSTSGSGKPGSGEGSTKGQVQLQQSGPELVKPGASVRISCKASGYTFTSYYIHWVKQRPGQGLEWIGWIYPGNVNTKYNEKFKGKATLTADKSSSTAYMQLSSLTSEDSAVYFCARNYGSSYGLAYWGQGTLVTVSAFVPVFLPAKPTTTPAPRPPTPAPTIASQPLSLRPEACRPAAGGAVHTRGLDFACDIYIWAPLAGTCGVLLLSLVITLYCNHRNRSKRSRLLHSDYMNMTPRRPGPTRKHYQPYAPPRDFAAYRSRVKFSRSADAPAYQQGQNQLYNELNLGRREEYDVLDKRRGRDPEMGGKPRRKNPQEGLYNELQKDKMAEAYSEIGMKGERRRGKGHDGLYQGLSTATKDTYDALHMQALPPR
notes: Control CAR on edited T cells; also called α-TNP/CD28/CD3ζ CAR; α-TNP/CD28/CD3ζ CAR TRAC 1
  binding result: no binding
